Assay results reported in PubChem BioAssay AID504834 (National Center for Advancing Translational Sciences (NCATS), 2011).
Hit rate of the full screen: of about 320,000 compounds, about 22,000 (6.9%) were called active. The shares of active, inactive and inconclusive entries below differ from those in the screen. The call rests on the fitted dose curve; in most records, active means well fitted inhibition curve with a large enough effect; inconclusive means small, poorly fitted or top-dose-only effect, or another doubt; inactive means no such curve, though single readings can be large or run the other way. A potency beside an inconclusive call is a rough fit, not a confirmed value.

Experiment: Primary qHTS for delayed death inhibitors of the malarial parasite plastid, 96 hour incubation
Settings: P. falciparum luciferase reporter growth; series mostly up to 28.7 µM
Method in brief: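 Erythrocytes infected with luciferase-expressing P. falciparum were dispensed at 2% hematocrit and 0.05% parasitemia (final), then incubated with compounds 96 hours at 37 C in 5% CO2. Luminescence after detection reagent addition reported growth.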
On the % scale 0 is the no-effect control and ±100 the full control effect; potency means the concentration at half of the fitted maximal effect.

Structure (SMILES)	Potency	activity change, negative = inhibition
CCN1CCN(c2ccc(S(=O)(=O)N3CCCCC3)cc2NC(=O)COc2ccc(F)cc2Cl)CC1	inconclusive: 2.94 µM [inhibitor, full curve]	–
CCCNCc1cc(OC)c(OCCC)cc1Cl	inconclusive: 9.28 µM [inhibitor, single point]	–
COc1ccc(NC(=O)CSc2nccn2C)cc1S(N)(=O)=O	inactive	–
O=C(CSc1nnnn1-c1ccc2c(c1)OCO2)NCc1ccccc1	inconclusive: 14.7 µM [inhibitor, single point]	–
CN(C)c1ccc(NC(=O)Cc2ccccc2)c2ccccc12	inactive	–
O=S(=O)(c1ccc2c(c1)OCCCO2)N1CCNCC1	inconclusive: 11.7 µM [inhibitor, partial curve, poor fit]	–
CCCCc1ccc(NC(=O)CSc2nc(=O)n(CCN3CCOCC3)c3c2CCC3)cc1	inconclusive: 11.7 µM [inhibitor, single point]	–
CC(NC(=O)Nc1ccc2c(c1)OCO2)c1ccncc1 (centres undefined)	inconclusive: 13.1 µM [inhibitor, partial curve, poor fit]	–
CC1(C(=O)NC2CCCC2)CCC(=O)N1Cc1ccccc1 (centres undefined)	inconclusive: 18.5 µM [inhibitor, single point]	–
COc1ccc(NC(=O)C/C(C)=N/NC(=O)c2cnccn2)cc1	inactive	–
COC(=O)N1CCCc2cc(C)ccc21	inactive	–
CCCS(=O)(=O)c1c(S(=O)(=O)CCC)c2ccc(C(N)=O)cn2c1C(=O)c1ccc(OC)cc1	inactive	–
O=C(O)COc1cnc2ccccc2n1	inactive	–
CCn1c(C)nc2cc(C(=O)N/N=C/c3ccc(N4CCOCC4)cc3)ccc21	inconclusive: 11.7 µM [inhibitor, partial curve]	–
CC(Sc1nnnn1C1CC1)C(=O)N1CC(=O)Nc2ccccc21 (centres undefined)	inconclusive: 11.7 µM [inhibitor, single point]	–
COc1ccc(OC)c(/C=C/C(=O)Oc2ccc(C(C)=O)cc2)c1	inactive	–
CC(C)NC(=S)N/N=C/c1cc(Br)ccc1O	active: 1.65 µM	–
CN(C)S(=O)(=O)c1cc(NC(=O)Cn2ccsc2=N)ccc1Cl	inactive	–
O=C1CC(N2CCN(c3nc4ccccc4s3)CC2)C(=O)N1c1ccc(F)cc1 (centres undefined)	inconclusive: 2.62 µM [inhibitor, partial curve, poor fit]	–
Cc1cccc(-c2ccc3ncnc(NCc4cccc(F)c4)c3c2)c1	active: 1.31 µM	–

Structure (SMILES)	Potency	activity change, negative = inhibition
COc1ccc2c(c1)C(=C(C#N)C#N)C(=O)N2CCc1ccccc1	inconclusive: 18.5 µM [inhibitor, single point]	–
Cc1ccc(-c2c(C(=O)N/N=C/C3CCCCC3)nnn2-c2nonc2N)cc1	inconclusive: 3.7 µM [inhibitor, partial curve]	–
Cc1ccc(S(=O)(=O)N2CCN(C(=O)CSc3ncn[nH]3)CC2)cc1	inconclusive: 18.5 µM [inhibitor, single point]	–
COC(=O)c1cc(O)cc(OC)c1Oc1cc(C)cc(O)c1C(=O)O	inactive	–
O=C(c1ccc(Cl)cc1)N1CCC(O)(CSc2ccc(Cl)cc2Cl)CC1	inconclusive: 14.7 µM [inhibitor, single point]	–
CCOC(=O)c1cc[nH]c1C	inconclusive: 18.5 µM [inhibitor, single point]	–
O=C(NC1CCCCC1)N1CCN(S(=O)(=O)c2ccc(F)cc2)CC1	inconclusive: 8.28 µM [inhibitor, partial curve, poor fit]	–
CCCC12CN(C(=O)c3ccc([N+](=O)[O-])cc3)CC(C)(CN(C(=O)c3ccc([N+](=O)[O-])cc3)C1)C2=O	active: 10.4 µM	–
COc1ccc(S(=O)(=O)NCCc2cn3nc(C)c(C)nc3n2)cc1C	inconclusive: 18.5 µM [inhibitor, single point]	–
O=C(NCc1ccccc1)N1CCN(c2ccccc2)CC1	inconclusive: 11.7 µM [inhibitor, single point]	–
CN(C)CC(C)(C)CNC(C(=O)Nc1ccc(Cl)cc1C(F)(F)F)c1ccccc1 (centres undefined)	inconclusive: 18.5 µM [inhibitor, single point]	–
Cc1ccccc1C(=O)NC=C1C(=O)OC(C)(C)OC1=O	–	inactive: 10.3% [at 5.75 µM]
NS(=O)(=O)c1ccc(Cl)c(S(N)(=O)=O)c1	inconclusive: 4.78 µM [inhibitor, partial curve]	–
COc1ccc(C(=O)c2sc(Nc3ccccc3)nc2N)cc1OC	inconclusive: 6.57 µM [inhibitor, partial curve]	–
COc1ccccc1-c1ocnc1C(=O)N1CCN(S(=O)(=O)c2ccc(NC(C)=O)cc2)CC1	inactive	–
COC(=O)c1ccc2c(c1)C(=O)/C(=C/c1ccc(O)cc1)O2	inactive	–
Cn1ccnc1SCC(=O)Nc1ccc2c(c1)OCO2	inactive	–
O=C(c1c(F)cccc1F)N1CCC(n2nnc3cc(C(F)(F)F)ccc32)CC1	inactive	–
c1cncc(CNc2ccc3c(c2)OCO3)c1	inactive	–

2 records picked at random from the list so far:
Structure (SMILES)	Potency	activity change, negative = inhibition
c1cncc(CNc2ccc3c(c2)OCO3)c1	inactive	–
O=C(O)COc1cnc2ccccc2n1	inactive	–
